In US20190153078A1:
Results are given in words; binding and its absence hold for the method and conditions named. Some entries that bind do so weakly or less than the wild type.

Legend:
[1] = target: C. difficile toxin A from strain VPI10463 (ATCC 43255), toxinotype 0 (Clostridium difficile) (UniProt P16154); experiment: BLI (Octet Red96)
[2] = target: C. difficile toxin A from strain VPI10463 (ATCC 43255), toxinotype 0 (Clostridium difficile) (UniProt P16154); experiment: Western blot, Toxinotype Binding (toxinotype 0)
[3] = target: C. difficile toxin A from strain VPI10463 (ATCC 43255), toxinotype 0 (Clostridium difficile) (UniProt P16154); experiment: Western blot, toxin of toxinotype 0
[4] = target: C. difficile toxin B from strain VPI10463 (ATCC 43255), toxinotype 0 (Clostridium difficile) (UniProt P18177); experiment: BLI (Octet Red96)
[5] = target: C. difficile toxin B from strain VPI10463 (ATCC 43255), toxinotype 0 (Clostridium difficile) (UniProt P18177); experiment: Western blot, Toxinotype Binding (toxinotype 0)
[6] = target: C. difficile toxin B from strain VPI10463 (ATCC 43255), toxinotype 0 (Clostridium difficile) (UniProt P18177); experiment: Western blot, toxin of toxinotype 0

Measured: binding

B1: A5 antibody (antibody, V domains shown)
VH: QVHLVESGGGVVQPGRSLRLSCATFGLNFSDYGFHWVRQAPGKGLEWVAVTSYDGSNKYYAEFVKGRFTISRDNYKNTVYLQMNSLRLEDTAVYYCARDLAPYNFWSGYGNNWFDPWGQGTLVTVSS
VL: EIVMTQSPATLSVSPGERATLSCRASQSISSNLAWYQQKPGQAPRLLIYDASTRATGIPARFSGSGSGTEFTLTISSLQSEDFAVYYCQQYNDWLVTFGQGTKVEIKR
binds: [1] | [2] | [3]

B2: B6 antibody (antibody, V domains shown)
VH: EVQLVESGGGLVQPGGSLRLSCAASGFTFTTSTMNWVRQAPGKGLEWVSYITRTSTVIYYADSVKGRFTISRDNAKNSLYLQMSSLRAEDTAVYYCARGVRDIGGNGFDYWGQGTLVTVSS
VL: EIVLTQSPGTLSLSPGERATLSCRASQSVTSSYLAWYQQKTGQAPRLLIYGASSRATGIPDRFSGSGSGTDFTLTIARLEPEDFAVYYCQQYGSSPPYTFGQGTKLEIKR
binds: [4] | [5] | [6]
